Data: article PMC12891039
No constants are given. Whether binding was seen depends on the method and setting. In cells and extracts the contact can be indirect. Some results given as binding are weak or reduced against the parent protein; the word gives no strength. Each block holds one molecule with its values, some of them ahead of it.

Chains of the proteins cited; added tags and fusions are not shown. Residues count along the entry.
UniProt Q9DBY1: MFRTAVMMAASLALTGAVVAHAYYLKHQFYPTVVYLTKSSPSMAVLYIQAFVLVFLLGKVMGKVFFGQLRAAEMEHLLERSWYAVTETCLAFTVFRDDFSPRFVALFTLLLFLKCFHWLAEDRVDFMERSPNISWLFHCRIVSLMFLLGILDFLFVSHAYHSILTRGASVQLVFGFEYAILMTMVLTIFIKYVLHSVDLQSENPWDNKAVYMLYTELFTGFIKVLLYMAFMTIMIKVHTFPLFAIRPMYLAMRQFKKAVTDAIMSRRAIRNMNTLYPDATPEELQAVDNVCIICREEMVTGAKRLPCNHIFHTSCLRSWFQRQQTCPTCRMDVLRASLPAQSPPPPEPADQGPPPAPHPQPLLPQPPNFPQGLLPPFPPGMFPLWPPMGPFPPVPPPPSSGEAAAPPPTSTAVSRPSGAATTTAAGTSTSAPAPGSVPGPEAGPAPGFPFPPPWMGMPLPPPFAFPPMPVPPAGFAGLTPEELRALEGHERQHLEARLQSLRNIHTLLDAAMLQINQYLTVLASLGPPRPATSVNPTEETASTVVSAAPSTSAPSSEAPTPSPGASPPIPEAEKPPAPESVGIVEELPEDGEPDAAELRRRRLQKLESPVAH
UniProt P20029, residues 20-655: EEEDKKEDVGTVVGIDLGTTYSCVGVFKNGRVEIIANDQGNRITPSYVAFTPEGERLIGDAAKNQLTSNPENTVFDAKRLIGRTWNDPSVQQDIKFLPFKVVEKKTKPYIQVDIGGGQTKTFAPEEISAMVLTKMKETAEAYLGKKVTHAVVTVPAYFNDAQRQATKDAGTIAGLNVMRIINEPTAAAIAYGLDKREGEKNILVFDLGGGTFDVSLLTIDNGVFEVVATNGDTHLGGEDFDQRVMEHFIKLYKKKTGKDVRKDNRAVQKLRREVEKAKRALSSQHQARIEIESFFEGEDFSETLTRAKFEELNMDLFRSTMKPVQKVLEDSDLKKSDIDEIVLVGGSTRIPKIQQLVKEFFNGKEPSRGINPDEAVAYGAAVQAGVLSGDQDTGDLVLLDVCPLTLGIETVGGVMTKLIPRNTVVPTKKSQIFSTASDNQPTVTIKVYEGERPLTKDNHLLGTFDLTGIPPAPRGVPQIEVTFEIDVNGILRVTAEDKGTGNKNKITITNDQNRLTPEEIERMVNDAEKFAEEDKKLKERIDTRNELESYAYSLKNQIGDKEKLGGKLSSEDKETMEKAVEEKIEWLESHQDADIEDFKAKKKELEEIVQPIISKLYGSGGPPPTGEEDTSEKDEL

Tests used:
[1] = target: HRD1 (mouse) (mouse (endogenous in MEFs and P0 liver)) (UniProt Q9DBY1); assay: co-IP; reciprocal IP of endogenous HRD1 (anti-HRD1, Protein A agarose) from MEF lysates; same lysis buffer; immunoblot
[2] = target: SEL1L (mouse, wild type) (mouse (endogenous in MEFs and P0 liver)) (UniProt Q9Z2G6); assay: co-IP; IP of endogenous SEL1L from P0 mouse liver lysates (WT, Sel1L^S658P, Sel1L^L709P); same lysis buffer; DERL2 eluted with 0.1 M glycine pH 2.5; immunoblot with quantification
[3] = target: SEL1L L709P (mouse knock-in, L705P in mouse numbering) (mouse (endogenous in MEFs and P0 liver)) (UniProt Q9Z2G6); assay: as above
[4] = target: SEL1L (mouse, wild type) (mouse (endogenous in MEFs and P0 liver)) (UniProt Q9Z2G6); assay: co-IP; IP of endogenous SEL1L (1 ug anti-SEL1L, Protein A agarose, overnight 4 C) from MEF lysates (WT, Sel1L^S658P, Sel1L^L709P, Sel1L^P699T, Sel1L^ERCre KO); 150 mM NaCl, 25 mM Tris-HCl pH 7.5, 0.2% NP-40, 0.1% Triton X-100; immunoblot, prey band normalised to bait
[5] = target: T1, SEL1L P699T (mouse knock-in, P695T in mouse numbering) (mouse (endogenous in MEFs)) (UniProt Q9Z2G6); assay: as above
T1 sequence: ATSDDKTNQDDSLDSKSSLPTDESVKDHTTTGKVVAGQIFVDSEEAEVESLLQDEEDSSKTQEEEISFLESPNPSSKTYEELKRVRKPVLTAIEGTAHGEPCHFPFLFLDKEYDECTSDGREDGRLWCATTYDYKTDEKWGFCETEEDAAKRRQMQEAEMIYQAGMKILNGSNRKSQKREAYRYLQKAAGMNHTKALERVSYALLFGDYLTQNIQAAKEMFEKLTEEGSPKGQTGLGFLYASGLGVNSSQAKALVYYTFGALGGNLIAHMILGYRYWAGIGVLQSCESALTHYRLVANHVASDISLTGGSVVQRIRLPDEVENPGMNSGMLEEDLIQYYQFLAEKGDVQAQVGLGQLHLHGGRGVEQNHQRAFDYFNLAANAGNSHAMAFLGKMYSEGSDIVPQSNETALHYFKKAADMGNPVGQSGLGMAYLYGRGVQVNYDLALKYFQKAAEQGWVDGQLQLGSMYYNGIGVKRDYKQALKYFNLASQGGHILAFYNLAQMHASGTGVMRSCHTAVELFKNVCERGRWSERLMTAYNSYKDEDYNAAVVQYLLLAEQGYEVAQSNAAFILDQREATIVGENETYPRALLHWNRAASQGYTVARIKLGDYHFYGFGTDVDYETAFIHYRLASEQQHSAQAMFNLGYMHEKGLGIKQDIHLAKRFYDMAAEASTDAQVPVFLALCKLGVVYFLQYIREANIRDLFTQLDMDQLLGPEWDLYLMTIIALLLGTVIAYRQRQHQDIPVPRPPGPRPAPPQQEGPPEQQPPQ

[6] = target: SEL1L (human, wild type) (human (endogenous in HEK293T)) (UniProt Q9UBV2); assay: co-IP; IP of endogenous SEL1L from lysates of WT, SEL1L^L709P KI and KO HEK293T cells; immunoblot, quantification normalised to SEL1L
[7] = target: T2, SEL1L L709P (human, knock-in HEK293T) (human (endogenous in HEK293T)) (UniProt Q9UBV2); assay: as above
T2 sequence: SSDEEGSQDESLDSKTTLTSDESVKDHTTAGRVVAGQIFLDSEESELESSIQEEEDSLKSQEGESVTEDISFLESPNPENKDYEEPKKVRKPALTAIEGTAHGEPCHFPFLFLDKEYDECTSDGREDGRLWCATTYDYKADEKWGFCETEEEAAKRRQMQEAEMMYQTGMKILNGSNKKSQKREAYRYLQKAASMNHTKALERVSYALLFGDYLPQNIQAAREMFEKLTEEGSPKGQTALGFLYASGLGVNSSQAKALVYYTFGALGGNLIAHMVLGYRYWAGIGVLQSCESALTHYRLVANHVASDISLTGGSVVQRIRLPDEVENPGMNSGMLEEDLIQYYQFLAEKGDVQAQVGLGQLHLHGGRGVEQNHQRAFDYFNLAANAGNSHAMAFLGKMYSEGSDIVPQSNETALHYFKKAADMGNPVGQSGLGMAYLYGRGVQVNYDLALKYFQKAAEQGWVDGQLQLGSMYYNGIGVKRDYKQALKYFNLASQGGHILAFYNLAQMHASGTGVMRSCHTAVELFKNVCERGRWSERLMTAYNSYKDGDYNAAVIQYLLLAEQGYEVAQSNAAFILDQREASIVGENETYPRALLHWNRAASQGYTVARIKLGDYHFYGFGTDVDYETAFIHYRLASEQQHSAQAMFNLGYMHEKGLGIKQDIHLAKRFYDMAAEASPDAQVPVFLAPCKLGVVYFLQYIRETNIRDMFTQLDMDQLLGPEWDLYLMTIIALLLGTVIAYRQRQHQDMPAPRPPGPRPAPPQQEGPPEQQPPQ

[8] = target: SEL1L L709P (mouse knock-in, L705P in mouse numbering) (mouse (endogenous in MEFs and P0 liver)) (UniProt Q9Z2G6); assay: co-IP; IP of endogenous SEL1L (1 ug anti-SEL1L, Protein A agarose, overnight 4 C) from MEF lysates (WT, Sel1L^S658P, Sel1L^L709P, Sel1L^P699T, Sel1L^ERCre KO); 150 mM NaCl, 25 mM Tris-HCl pH 7.5, 0.2% NP-40, 0.1% Triton X-100; immunoblot, prey band normalised to bait

Molecule: SEL1L (mouse, wild type) (from UniProt Q9Z2G6 22-790)
- binding [1]: binds

Molecule: BiP (mouse) (from UniProt P20029 20-655)
- binding [2]: binds
- binding [3]: binds

Molecule: HRD1 (mouse) (from UniProt Q9DBY1 1-612) (enzyme)
- binding [2]: binds
- binding [4]: binds
- binding [5]: binds

B1: FAM8A1 (human) (protein, UniProt Q9UBU6 1-413)
chain: MAEGPEEARGHPPGQDDGGGDHEPVPSLRGPPTTAVPCPRDDPQAEPQAPGRPTAPGLAAAAAADKLEPPRELRKRGEAASGSGAELQEQAGCEAPEAAAPRERPARLSAREYSRQVHEWLWQSYCGYLTWHSGLAAFPAYCSPQPSPQSFPSGGAAVPQAAAPPPPQLGYYNPFYFLSPGAAGPDPRTAAGISTPAPVAGLGPRAPHVQASVRATPVTRVGSAAPSRSPSETGRQAGREYVIPSLAHRFMAEMVDFFILFFIKATIVLSIMHLSGIKDISKFAMHYIIEEIDEDTSMEDLQKMMVVALIYRLLVCFYEIICIWGAGGATPGKFLLGLRVVTCDTSVLIAPSRVLVIPSSNVSITTSTIRALIKNFSIASFFPAFITLLFFQHNRTAYDIVAGTIVVKRNGVR
- binding [6]: binds

B2: OS9 (human) (protein, UniProt Q13438 26-667)
chain: GGVGSLNLEELSEMRYGIEILPLPVMGGQSQSSDVVIVSSKYKQRYECRLPAGAIHFQREREEETPAYQGPGIPELLSPMRDAPCLLKTKDWWTYEFCYGRHIQQYHMEDSEIKGEVLYLGYYQSAFDWDDETAKASKQHRLKRYHSQTYGNGSKCDLNGRPREAEVRFLCDEGAGISGDYIDRVDEPLSCSYVLTIRTPRLCPHPLLRPPPSAAPQAILCHPSLQPEEYMAYVQRQADSKQYGDKIIEELQDLGPQVWSETKSGVAPQKMAGASPTKDDSKDSDFWKMLNEPEDQAPGGEEVPAEEQDPSPEAADSASGAPNDFQNNVQVKVIRSPADLIRFIEELKGGTKKGKPNIGQEQPVDDAAEVPQREPEKERGDPERQREMEEEEDEDEDEDEDEDERQLLGEFEKELEGILLPSDRDRLRSEVKAGMERELENIIQETEKELDPDGLKKESERDRAMLALTSTLNKLIKRLEEKQSPELVKKHKKKRVVPKKPPPSPQPTEEDPEHRVRVRVTKLRLGGPNQDLTVLEMKRENPQLKQIEGLVKELLEREGLTAAGKIEIKIVRPWAEGTEEGARWLTDEDTRNLKEIFFNILVPGAEEAQKERQRQKELESNYRRVWGSPGGEGTGDLDEFDF
- binding [6]: binds
- binding [7]: binds

Results, then the molecule that gave them:

- binding [6]: binds
- binding [7]: binds
B3: UBE2J1 (human) (enzyme, UniProt Q9Y385 1-318)
chain: METRYNLKSPAVKRLMKEAAELKDPTDHYHAQPLEDNLFEWHFTVRGPPDSDFDGGVYHGRIVLPPEYPMKPPSIILLTANGRFEVGKKICLSISGHHPETWQPSWSIRTALLAIIGFMPTKGEGAIGSLDYTPEERRALAKKSQDFCCEGCGSAMKDVLLPLKSGSDSSQADQEAKELARQISFKAEVNSSGKTISESDLNHSFSLTDLQDDIPTTFQGATASTSYGLQNSSAASFHQPTQPVAKNTSMSPRQRRAQQQSQRRLSTSPDVIQGHQPRDNHTDHGGSAVLIVILTLALAALIFRRIYLANEYIFDFEL

- binding [4]: binds
- binding [8]: binds
- binding [5]: binds
B4: UBE2J1 (mouse) (enzyme, UniProt Q9JJZ4 1-318)
chain: METRYNLKSPAVKRLMKEAAELKDPTDHYHAQPLEDNLFEWHFTVRGPPDSDFDGGVYHGRIVLPPEYPMKPPSIILLTANGRFEVGKKICLSISGHHPETWQPSWSIRTALLAIIGFMPTKGEGAIGSLDYTPEERRALAKKSQDFCCEGCGSAMKDVLLPLKSGSGSSQADQEAKELARQISFKAEVNSSGKTIAESDLNQCFSLNDSQDDLPTTFQGATASTSYGAQNPSGAPLPQPTQPAPKNTSMSPRQRRAQQQSQRRPSTSPDVLQGQPPRAHHTEHGGSAMLIIILTLALAALIFRRIYLANEYIFDFEL

- binding [2]: binds
B5: DERL2 (mouse) (protein, UniProt Q8BNI4 1-239)
chain: MAYQSLRLEYLQIPPVSRAYTTACVLTTAAVQLELITPFQLYFNPELIFKHFQIWRLITNFLFFGPVGFNFLFNMIFLYRYCRMLEEGSFRGRTADFVFMFLFGGFLMTLFGLFVSLVFLGQAFTIMLVYVWSRRNPYVRMNFFGLLNFQAPFLPWVLMGFSLLLGNSIIVDLLGIAVGHIYFFLEDIFPNQPGGIRILKTPSILRTIFDTPDEDPNYNPLPEERPGGFAWGEGQRLGG

- binding [6]: binds
B6: DERL2 (human) (protein, UniProt Q9GZP9 1-239)
chain: MAYQSLRLEYLQIPPVSRAYTTACVLTTAAVQLELITPFQLYFNPELIFKHFQIWRLITNFLFFGPVGFNFLFNMIFLYRYCRMLEEGSFRGRTADFVFMFLFGGFLMTLFGLFVSLVFLGQAFTIMLVYVWSRRNPYVRMNFFGLLNFQAPFLPWVLMGFSLLLGNSIIVDLLGIAVGHIYFFLEDVFPNQPGGIRILKTPSILKAIFDTPDEDPNYNPLPEERPGGFAWGEGQRLGG
